We go through 3 substances from publication PMC12170509.

The chains behind the UniProt entries cited, without tags or fusion partners.
UniProt P42227: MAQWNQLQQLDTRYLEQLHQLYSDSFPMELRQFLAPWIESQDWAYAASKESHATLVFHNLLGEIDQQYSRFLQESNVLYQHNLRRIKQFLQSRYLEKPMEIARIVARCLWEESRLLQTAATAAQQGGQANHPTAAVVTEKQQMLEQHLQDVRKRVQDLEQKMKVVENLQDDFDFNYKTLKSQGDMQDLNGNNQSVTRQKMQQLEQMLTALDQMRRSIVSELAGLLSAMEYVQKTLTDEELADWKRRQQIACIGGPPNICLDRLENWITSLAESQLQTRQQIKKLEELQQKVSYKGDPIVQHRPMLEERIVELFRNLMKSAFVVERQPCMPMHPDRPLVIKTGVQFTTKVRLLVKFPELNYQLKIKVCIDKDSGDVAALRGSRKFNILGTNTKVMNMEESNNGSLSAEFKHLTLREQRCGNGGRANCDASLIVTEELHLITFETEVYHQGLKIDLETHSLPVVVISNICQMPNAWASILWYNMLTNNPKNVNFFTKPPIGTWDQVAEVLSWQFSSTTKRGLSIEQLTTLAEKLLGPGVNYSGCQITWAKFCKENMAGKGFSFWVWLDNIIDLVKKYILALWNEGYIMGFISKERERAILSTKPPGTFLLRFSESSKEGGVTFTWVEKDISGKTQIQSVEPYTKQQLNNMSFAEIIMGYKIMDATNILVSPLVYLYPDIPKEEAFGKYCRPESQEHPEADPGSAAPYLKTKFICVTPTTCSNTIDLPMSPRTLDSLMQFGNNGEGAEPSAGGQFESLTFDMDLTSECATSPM
UniProt Q04207: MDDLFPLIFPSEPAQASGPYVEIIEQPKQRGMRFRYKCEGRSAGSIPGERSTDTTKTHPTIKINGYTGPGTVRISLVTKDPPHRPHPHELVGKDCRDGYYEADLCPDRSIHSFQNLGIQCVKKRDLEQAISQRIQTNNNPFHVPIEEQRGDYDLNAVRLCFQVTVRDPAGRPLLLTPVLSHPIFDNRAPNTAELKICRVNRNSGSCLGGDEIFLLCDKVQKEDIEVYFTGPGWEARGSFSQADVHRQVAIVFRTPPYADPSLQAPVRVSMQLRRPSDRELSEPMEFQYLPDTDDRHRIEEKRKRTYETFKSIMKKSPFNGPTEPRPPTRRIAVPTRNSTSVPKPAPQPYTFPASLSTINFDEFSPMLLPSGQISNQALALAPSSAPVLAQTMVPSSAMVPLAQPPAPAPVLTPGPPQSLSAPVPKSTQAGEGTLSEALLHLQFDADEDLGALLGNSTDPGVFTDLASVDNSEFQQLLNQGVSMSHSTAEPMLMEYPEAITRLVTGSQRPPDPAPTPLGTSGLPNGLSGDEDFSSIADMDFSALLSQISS
UniProt P63208: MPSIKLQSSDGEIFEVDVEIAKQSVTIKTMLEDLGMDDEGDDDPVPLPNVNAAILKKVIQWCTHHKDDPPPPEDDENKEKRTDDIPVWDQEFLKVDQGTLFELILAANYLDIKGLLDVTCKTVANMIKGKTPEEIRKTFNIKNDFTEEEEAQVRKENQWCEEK

One assay has as its target T1, c-Myc-tagged PDLIM2 (UniProt Q8R1G6).
T1 sequence: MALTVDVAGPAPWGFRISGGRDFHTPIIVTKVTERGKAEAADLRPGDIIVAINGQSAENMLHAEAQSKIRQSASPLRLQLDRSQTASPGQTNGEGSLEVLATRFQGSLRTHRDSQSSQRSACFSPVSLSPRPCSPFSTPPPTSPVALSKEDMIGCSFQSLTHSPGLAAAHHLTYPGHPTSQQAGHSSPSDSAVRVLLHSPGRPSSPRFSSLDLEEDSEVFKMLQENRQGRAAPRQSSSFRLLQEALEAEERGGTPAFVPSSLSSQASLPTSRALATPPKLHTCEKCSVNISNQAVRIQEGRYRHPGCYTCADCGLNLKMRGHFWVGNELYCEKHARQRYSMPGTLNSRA
The experiment in a line: co-IP; HEK293T transfected with the c-Myc-tagged bait (and Flag-tagged partner where given); whole cell extract in RIPA buffer; IP with anti-c-Myc agarose overnight, four washes; immunoblot; in some panels cells were first transfected with control siRNA or siRNA against Cullin 1, Skp1 or Fbxo proteins. (Immunoblotting shows a protein as a band on a membrane.)

The target of assay [1] is T2, Flag-tagged PDLIM2 (mouse) (UniProt Q8R1G6).
T2 sequence: T1 sequence
In words: co-IP; HEK293T transfected with Flag-PDLIM2; lysis in 50 mM Tris pH 8.0, 0.5% NP-40, 5 mM EDTA, 50 mM NaCl, 50 mM sodium fluoride; IP with anti-Flag; immunoblot with anti-Skp1.

Results are given in words; binding and its absence hold for the method and conditions named. Binding seen in cells or lysates may run through a third protein. Some entries that bind do so weakly or less than the wild type. Tags and fused reporters may be left off the sequences shown.

Consider “Flag-tagged STAT3 (from UniProt P42227 1-770)”, for which the binding result with c-Myc-tagged PDLIM2 is on record as “binds”.

For the substance “Flag-tagged p65 (from UniProt Q04207 1-549)”, the binding result in the assay with c-Myc-tagged PDLIM2 is listed as “binds”.

Consider Skp1 (from UniProt P63208 1-163), for which the binding entry in assay [1] is “binds”.
